# Library screening results

Sequences of proteins named here, by UniProt entry; tags and fusion partners are left off.
UniProt E9BF75, entry or part of it: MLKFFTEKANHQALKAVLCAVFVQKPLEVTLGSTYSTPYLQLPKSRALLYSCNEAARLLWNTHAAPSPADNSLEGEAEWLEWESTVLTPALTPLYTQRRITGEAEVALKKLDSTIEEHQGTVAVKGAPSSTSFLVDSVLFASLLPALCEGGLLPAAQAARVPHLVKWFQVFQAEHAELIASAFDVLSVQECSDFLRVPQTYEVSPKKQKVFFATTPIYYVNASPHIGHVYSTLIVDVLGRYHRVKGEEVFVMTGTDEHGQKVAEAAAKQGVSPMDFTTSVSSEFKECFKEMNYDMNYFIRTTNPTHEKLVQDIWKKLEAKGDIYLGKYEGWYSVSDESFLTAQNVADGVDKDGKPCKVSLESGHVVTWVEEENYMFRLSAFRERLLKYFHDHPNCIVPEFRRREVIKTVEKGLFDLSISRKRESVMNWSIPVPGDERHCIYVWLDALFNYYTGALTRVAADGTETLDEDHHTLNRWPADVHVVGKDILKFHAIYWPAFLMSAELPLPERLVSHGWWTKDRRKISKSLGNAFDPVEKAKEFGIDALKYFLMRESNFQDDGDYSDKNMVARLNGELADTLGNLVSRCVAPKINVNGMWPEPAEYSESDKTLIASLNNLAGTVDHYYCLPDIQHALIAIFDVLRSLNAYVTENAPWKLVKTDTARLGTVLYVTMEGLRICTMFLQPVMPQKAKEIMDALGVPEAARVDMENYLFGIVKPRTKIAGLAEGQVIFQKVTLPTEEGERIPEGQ

From ChEMBL document CHEMBL3988442, “University of Dundee, Small-Polar-MMV Screening Library” (2021).

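Methionyl-tRNA synthetase (putative), Leishmania donovani (UniProt E9BF75). Primary screen of methionyl-tRNA synthetase; the read-out is not stated. The test concentration is not given. The values are filed as inhibition. Size under these conditions: about 68,000 compounds, about 24 of them at 50% or above in at least one test.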

All values are in %.
How 0% and 100% were set is not recorded. Most values in the screen are low, and negative values occur.
This is an unselected part of the compounds tested.

With CCCN(Cc1cnc2ccccc2n1)Cc1ccccc1OC the screen gave 7.949%.
With COc1ccccc1CN(C)C(=O)C[S+]([O-])Cc1cc(C)on1 (configuration not stated) the screen gave 15.92%.
With CCc1ccc(S(=O)(=O)Nc2cc(OC)c(OC)cc2C(=O)O)s1 the screen gave 10.24%.
With Cc1ccc(NC(=O)CCC2CC2)cc1N1CCOC1=O the screen gave 21.82%.
With CC(Oc1ccccc1)C(=O)N1CCCN(Cc2cscn2)CC1 (configuration not stated) the screen gave 18.95%.
With CC1CCN(Cc2c(C(C)C)[nH]c3ncccc23)CC1 the screen gave 9.574%.
With CC(=O)c1cccc(OCC(=O)NS(=O)(=O)c2ccc(Br)s2)c1 the screen gave 22.82%.
With Clc1ccc(CN2CCOC[C@H](Oc3cccnc3)C2)cc1 the screen gave 15.93%.
With COCC(=O)N1CCN2C(=O)OC[C@H]2C1 the screen gave 3.008%.
With O=C1C(CS(=O)(=O)Nc2ccc(Br)cc2)=NC(=O)n2cccc21 the screen gave 8.182%.
With N#Cc1ccc(CNC(=O)NCCC(=O)NC2CCCC2)c(F)c1 the screen gave 8.289%.
With CCC(CN1CCCC1)NC(=O)C1(c2cccc(F)c2)CC1 (configuration not stated) the screen gave 16.56%.
With Cc1ccc(CNC(=O)CCN2CCOC(C(F)(F)F)C2)cc1 (configuration not stated) the screen gave 13.59%.
With CC(NS(C)(=O)=O)C(=O)N(C)Cc1cnn(-c2ccc(F)cc2)c1 (configuration not stated) the screen gave 2.29%.
With Cc1cc(C(=O)N2CCC3(CC2)C(=O)N(C)CCN3CC(C)C)c(C)o1 the screen gave 13.49%.
With O=C(NC1CC1)C1(Cc2ccccc2-c2ccncc2)CCOCC1 the screen gave 12.9%.
With Cc1nn(C)c(N2CCOCC2)c1CNCc1nccs1 the screen gave 12.24%.
With CC(C)CN(Cc1nnc(-c2ccco2)o1)CC(C)C the screen gave 9.317%.
With NC(=O)c1csc(N2C[C@@H](CN3CCC(O)CC3)[C@@H](CO)C2)n1 the screen gave 23.49%.
With CC(C)NC(=O)[C@@]12CCO[C@@H]1CCN(Cc1ccc3c(c1)OCO3)C2 the screen gave 8.743%.
With Cn1nc(C2CNCCO2)cc1CCOc1cccc(C(F)(F)F)c1 (configuration not stated) the screen gave 13.83%.
With COC(=O)c1ccc(/C=C/c2ncc(C(=O)O)s2)cc1 the screen gave 9.409%.
With Cc1ccc(CN2CC(C(=O)Nc3ccccc3)C3(CCOCC3)C2)o1 (configuration not stated) the screen gave 3.226%.
With Cc1cc2nc(SCC(=O)N3CCCC3)n(C)c(=O)c2[nH]1 the screen gave 3.499%.
With COC1CCN(C(=O)c2cc(-c3ccc(Cl)cc3)on2)CC1 the screen gave 13.58%.
With Cn1cnc2c1C(C(=O)N1CCOCC1)N(C(=O)c1ccccc1)CC2 (configuration not stated) the screen gave 18.12%.
With CC(NCc1nnc2n1CCCC2)c1nc(-c2cccs2)no1 (configuration not stated) the screen gave 11.15%.
With Cc1cnc(N2CC[C@@H]3O[C@H](COCc4ccccn4)CC[C@@H]32)nc1 the screen gave 22.53%.
With O=C(CCc1nc(Cl)n[nH]1)N1CCC2(CCCNC2=O)C1 (configuration not stated) the screen gave 11%.
With CNS(=O)(=O)Cc1ccccc1CNc1ccc(C#N)cn1 the screen gave 1.613%.
With Cc1nn(C)cc1-c1ccnc(N2CCCN(CC(C)C)CC2)n1 the screen gave -2.579%.
With O=C(NS(=O)(=O)Cc1cc(-c2ccccc2)no1)C1CCOCC1 the screen gave 12.58%.
With CN(Cc1ccco1)C1CCC12CCN(C(=O)c1ccco1)CC2 (configuration not stated) the screen gave 11.67%.
With CCOC(CC)C(=O)NCc1cccc(N2CCCCC2=O)c1 (configuration not stated) the screen gave 3.78%.
With Cc1ccc(N2CCC(C(=O)O)(n3ccc(C(C)C)n3)CC2)nn1 the screen gave 1.961%.
With COc1ccc(CN(C)[C@@H]2CN(C(=O)c3ccnn3C)C[C@H]2O)cc1 the screen gave 18.75%.
With CC(C)Oc1cccc(CN2CCC(c3n[nH]c4ncccc34)CC2)c1 the screen gave 2.604%.
With O=C(O)CCn1ccc(=O)c2ccccc21 the screen gave 19.26%.
With Cc1nccn1[C@@H]1CC[C@@H](NC(=O)CCCn2cccn2)[C@H]1O the screen gave 9.748%.
With C1CC(CN2CCCCC2C2OCCO2)C1 (configuration not stated) the screen gave 14.02%.
With CCN(CC1CCOCC1)C(=O)Cn1ccccc1=O the screen gave -1.229%.
With CCN(Cc1noc(C(C)C)n1)Cc1ccc(C#N)cc1F the screen gave 5.59%.
With O=C(CCOc1cccc(F)c1)N1CCCC(n2cccn2)C1 (configuration not stated) the screen gave 17.49%.
With Cc1cnn(CCNCc2c(C(C)C)nn(C)c2Cl)c1 the screen gave 7.958%.
With O=C(c1ccncc1F)N1CCOC(c2cccc(O)c2)C1 (configuration not stated) the screen gave 4.01%.
With CN(Cc1nc(C2CC2)no1)C(=O)C1COc2ccccc2C1 (configuration not stated) the screen gave 11.37%.
With CCC(Oc1ccc(N(C)S(C)(=O)=O)cc1)C(=O)N(C)C (configuration not stated) the screen gave 10.99%.
With COC(=O)c1cccc(NC(=O)CN2CCN(S(C)(=O)=O)CC2)c1 the screen gave 7.063%.
With CC(=O)Cc1c(C)nn(-c2cncc(C(N)=O)c2)c1C the screen gave 15.22%.
With CC(NC(=O)Cn1cc(C(N)=O)c(-c2ccccc2)n1)C1CC1 (configuration not stated) the screen gave 5.108%.
With CC(=O)N1CCN([C@@H]2CC[C@@H](N(C)C(=O)C3CCCCC3)[C@H]2O)CC1 the screen gave 5.412%.
With CCNc1cc2c(nn1)CCN(C(=O)CC1CCCCC1)C2 the screen gave 11.74%.
With NS(=O)(=O)c1cccnc1Nc1cccc(Cl)c1Cl the screen gave 13.16%.

Repeated from the top, 3 entries:

| SMILES | Inhibition |
|---|---|
| `CCCN(Cc1cnc2ccccc2n1)Cc1ccccc1OC` | 7.949% |
| `COc1ccccc1CN(C)C(=O)C[S+]([O-])Cc1cc(C)on1` (configuration not stated) | 15.92% |
| `CCc1ccc(S(=O)(=O)Nc2cc(OC)c(OC)cc2C(=O)O)s1` | 10.24% |